This is an account of results in publication PMC10759449.

Protein sequences, listed by entry. Tags and fused reporters are not part of them.
UniProt Q86VP1: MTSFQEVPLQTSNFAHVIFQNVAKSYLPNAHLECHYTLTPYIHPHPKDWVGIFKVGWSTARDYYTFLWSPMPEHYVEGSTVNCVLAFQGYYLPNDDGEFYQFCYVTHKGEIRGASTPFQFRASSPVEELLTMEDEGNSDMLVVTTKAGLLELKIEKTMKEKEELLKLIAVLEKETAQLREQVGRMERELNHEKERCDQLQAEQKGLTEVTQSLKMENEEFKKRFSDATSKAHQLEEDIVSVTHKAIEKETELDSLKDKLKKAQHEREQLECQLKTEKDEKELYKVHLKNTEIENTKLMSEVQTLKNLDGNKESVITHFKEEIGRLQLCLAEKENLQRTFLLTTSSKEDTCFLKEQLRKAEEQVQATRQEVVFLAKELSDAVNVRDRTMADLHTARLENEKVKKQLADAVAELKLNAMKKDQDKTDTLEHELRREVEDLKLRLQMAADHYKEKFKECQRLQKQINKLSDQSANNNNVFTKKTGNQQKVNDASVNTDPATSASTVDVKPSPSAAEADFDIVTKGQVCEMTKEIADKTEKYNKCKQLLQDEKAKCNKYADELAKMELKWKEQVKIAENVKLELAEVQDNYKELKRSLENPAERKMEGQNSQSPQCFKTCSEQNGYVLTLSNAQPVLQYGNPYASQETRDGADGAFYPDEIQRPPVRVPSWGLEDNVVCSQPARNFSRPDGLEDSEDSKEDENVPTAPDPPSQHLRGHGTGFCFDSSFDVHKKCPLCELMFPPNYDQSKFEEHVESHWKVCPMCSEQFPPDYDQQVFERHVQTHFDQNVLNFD

The target in this assay is Tax1 binding protein 1 (human (endogenous in TNBC cells)) (UniProt Q86VP1). Nature of the assay: co-IP; cell lysates of TNBC cells, immunoprecipitation with anti-PDIA4 or anti-TAX1BP1 antibody and protein A/G agarose beads, detection by Western blot. (In general: A western blot detects proteins with antibodies after separation by electrophoresis.)

Results are given in words; binding and its absence hold for the method and conditions named. In cells and extracts the contact can be indirect. Some results given as binding are weak or reduced against the parent protein; the word gives no strength.

B1: Protein disulfide isomerase family member 4 (protein, UniProt P13667 21-645)
chain: VAGAEGPDEDSSNRENAIEDEEEEEEEDDDEEEDDLEVKEENGVLVLNDANFDNFVADKDTVLLEFYAPWCGHCKQFAPEYEKIANILKDKDPPIPVAKIDATSASVLASRFDVSGYPTIKILKKGQAVDYEGSRTQEEIVAKVREVSQPDWTPPPEVTLVLTKENFDEVVNDADIILVEFYAPWCGHCKKLAPEYEKAAKELSKRSPPIPLAKVDATAETDLAKRFDVSGYPTLKIFRKGRPYDYNGPREKYGIVDYMIEQSGPPSKEILTLKQVQEFLKDGDDVIIIGVFKGESDPAYQQYQDAANNLREDYKFHHTFSTEIAKFLKVSQGQLVVMQPEKFQSKYEPRSHMMDVQGSTQDSAIKDFVLKYALPLVGHRKVSNDAKRYTRRPLVVVYYSVDFSFDYRAATQFWRSKVLEVAKDFPEYTFAIADEEDYAGEVKDLGLSESGEDVNAAILDESGKKFAMEPEEFDSDTLREFVTAFKKGKLKPVIKSQPVPKNNKGPVKVVVGKTFDSIVMDPKKDVLIEFYAPWCGHCKQLEPVYNSLAKKYKGQKGLVIAKMDATANDVPSDRYKVEGFPTIYFAPSGDKKNPVKFEGGDRDLEHLSKFIEEHATKLSRTKEEL
Take B1: the binding entry is on record as “binds”.
